In patent publication CN108752475A:
No constants are given. Whether binding was seen depends on the method and setting. Some entries that bind do so weakly or less than the wild type.

Protein sequences, listed by entry. Tags and fused reporters are not part of them. Lines headed by an entry give the natural chain unless they say otherwise; changes in a name come on top.
UniProt P28907: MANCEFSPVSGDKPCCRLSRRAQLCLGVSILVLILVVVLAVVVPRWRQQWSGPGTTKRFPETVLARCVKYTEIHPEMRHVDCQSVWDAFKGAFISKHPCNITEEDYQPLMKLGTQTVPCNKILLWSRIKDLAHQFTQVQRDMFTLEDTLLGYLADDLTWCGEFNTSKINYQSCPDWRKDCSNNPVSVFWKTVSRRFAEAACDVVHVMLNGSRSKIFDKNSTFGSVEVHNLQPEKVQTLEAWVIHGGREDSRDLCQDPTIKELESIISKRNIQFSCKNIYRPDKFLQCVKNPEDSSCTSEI

B1: S5B7 (mouse-human chimeric antibody, human IgG1) (antibody)
scFv: QVQLQQPGSVLVRPGASVKLSCKATGYTFSSYWIEWVKQRPGHGLEWIGDILPGTGTTNYNEKFKGKATFTADTSSNTAYMQFSSLTSEDSAVYYCASSYGNYVWGQGTSLTVSSGGGGSGGGGSGGGGSDVVMTQSPASLAVSLGQRATISCKASQSVDYDGDSYMNWYQQKPGQPPRLLIYAASNLESGIPARFSGSGSGTDFTLNIHPVEEEDAATYYCQQGNGAPRTFGGGTKLEIK
B2: S5B5 (mouse-human chimeric antibody, human IgG1) (antibody)
scFv: QVKLQQFGAELVKPGASVKISCKATGYTFSSYWIGWVKQRPGHGLEWIGEILPGTGSTNYNEKFKDKATFTADTSPNTAYMQLSSLTSEDSAVYYCARWDGNYGDYALDYWGQGTSVTVSAGGGGSGGGGSGGGGSDIVMTQSPSSMYASLGERVTITCKASQDINSYLSWFQQKPGKSPKTLIYRANRLVDGVPSRFSGSGSGQDYSLTISSLEYEDMGIYYCLQYDEFPYTFGGGTKLEIK
B3: S5D3 (mouse-human chimeric antibody, human IgG1) (antibody)
scFv: QVQLQQSGAELMKPGASVKISCKATGYTSSSYWIEWVKQRPGHGLEWIGEILPGSGSTNYNEKFKGKATFTADTSSNTAYMQLSSLTSEDSAVYYCARLYDNSYFDYWGQGTSLTVSSGGGGSGGGGSGGGGSDIVMTQSPSSMYASLGERVTITCKASQDINSYLSWFQQKPGKSPKTLIYRANRLVDGVPSRFSGSGSGQDYSLTISSLEYEDMGIYYCLQYDEFPYTFGGGTKLEMK
B4: S5B4 (mouse-human chimeric antibody, human IgG1) (antibody)
scFv: QVKLQQSGAELMKPGASVKISCKATGYTFSSYWIGWLKQRPGHGLEWVGELLPGSGSTNYNEKFKGKATFTADTSSNTAYMQLSSLTSEDSAVYYCARWDGNYGDYTLDYWGQGTSVTVSSGGGGSGGGGSGGGGSDIVMTQSPSSMYASLGERVTITCKASQDINSYLSWFQQKPGKSPKTLIYRANRLVDGVPSRFSGSGSGQDYSLTISSLEYEDMGIYYCLQYDEFPYTFGGGTKLEMK
B5: S5E3 (mouse-human chimeric antibody, human IgG1) (antibody)
scFv: QVQLQQSGPEVVKPGASVKMSCKATGYTSRSYWIEWVKQRPGHGLEWIGEILPGSGSTNYNEKFKGKATFTADTSSNTAYMQLSSLTSEDSAVYYCARWDGNYGDFVLDYWGQGTSVTVSSGGGGSGGGGSGGGGSDIQMTQSPSSMYASLGERVTITCKASQDINSYLSWFQQKPGKSPKTLIYRANRLVDGVPSRFSGSGSGQDYFLTISSLEYEDMGIYYCLQYDEFPYTFGGGTKLEMK

What follows are binders tested against 人CD38胞外区 (hCD38) with C-terminal His tag, hCD38-his (human (homo sapiens)) (UniProt P28907) (assay: ELISA, hCD38-his coated at 1.5 μg/ml, HRP anti-human IgG detection).

binding, binds:
B1
B2
B3
B4
B5
